Results on 67 sequences are retold here after publication PMC7862700.

Amino acid sequences for entries named in this document (tags omitted). A change or cut given only in a name is not applied to a line headed by its entry.
UniProt Q99607: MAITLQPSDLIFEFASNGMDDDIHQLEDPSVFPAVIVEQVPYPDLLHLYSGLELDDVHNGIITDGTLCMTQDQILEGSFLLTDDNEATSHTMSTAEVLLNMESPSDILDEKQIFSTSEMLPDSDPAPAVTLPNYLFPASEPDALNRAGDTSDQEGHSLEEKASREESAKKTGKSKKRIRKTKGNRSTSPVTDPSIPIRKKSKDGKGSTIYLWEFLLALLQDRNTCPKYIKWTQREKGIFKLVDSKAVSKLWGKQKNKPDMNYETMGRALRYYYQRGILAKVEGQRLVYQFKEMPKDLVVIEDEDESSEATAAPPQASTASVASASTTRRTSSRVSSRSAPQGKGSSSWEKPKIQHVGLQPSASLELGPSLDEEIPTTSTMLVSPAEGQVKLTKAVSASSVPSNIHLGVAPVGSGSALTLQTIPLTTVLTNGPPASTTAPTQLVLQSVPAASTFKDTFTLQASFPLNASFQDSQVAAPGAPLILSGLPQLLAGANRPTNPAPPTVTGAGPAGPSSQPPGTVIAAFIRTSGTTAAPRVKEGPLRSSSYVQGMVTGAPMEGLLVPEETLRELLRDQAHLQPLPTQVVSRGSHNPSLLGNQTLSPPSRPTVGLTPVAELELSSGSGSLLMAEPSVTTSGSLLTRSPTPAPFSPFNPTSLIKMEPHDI
UniProt Q01892: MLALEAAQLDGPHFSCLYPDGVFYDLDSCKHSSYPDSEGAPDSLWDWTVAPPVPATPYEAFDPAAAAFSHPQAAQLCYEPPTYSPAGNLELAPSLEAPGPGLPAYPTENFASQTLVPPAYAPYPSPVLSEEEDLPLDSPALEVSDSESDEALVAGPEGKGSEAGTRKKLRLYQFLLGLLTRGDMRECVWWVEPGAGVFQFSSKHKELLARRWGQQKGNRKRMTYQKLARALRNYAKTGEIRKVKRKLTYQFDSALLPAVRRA

Only a part is listed here, and it is no random draw. At the low end of the ranking the order means little.

What all share (experiment): DAPPL (digital affinity profiling via proximity ligation, sequencing)
Conditions in all cases: 10 mM Tris-HCl pH 7.5, 50 mM NaCl, 1 mM DTT, 4% glycerol, room temperature, 30 min; GST-TFs on glutathione beads, 16-mer random dsDNA library, 0.1% …; high values mean tight binding; double strand, one strand shown; scale: fold enrichment (6-mer frequency, TF over GST control)

Assay [1] deals with T1, FLI1 (UniProt Q01543).
T1 sequence: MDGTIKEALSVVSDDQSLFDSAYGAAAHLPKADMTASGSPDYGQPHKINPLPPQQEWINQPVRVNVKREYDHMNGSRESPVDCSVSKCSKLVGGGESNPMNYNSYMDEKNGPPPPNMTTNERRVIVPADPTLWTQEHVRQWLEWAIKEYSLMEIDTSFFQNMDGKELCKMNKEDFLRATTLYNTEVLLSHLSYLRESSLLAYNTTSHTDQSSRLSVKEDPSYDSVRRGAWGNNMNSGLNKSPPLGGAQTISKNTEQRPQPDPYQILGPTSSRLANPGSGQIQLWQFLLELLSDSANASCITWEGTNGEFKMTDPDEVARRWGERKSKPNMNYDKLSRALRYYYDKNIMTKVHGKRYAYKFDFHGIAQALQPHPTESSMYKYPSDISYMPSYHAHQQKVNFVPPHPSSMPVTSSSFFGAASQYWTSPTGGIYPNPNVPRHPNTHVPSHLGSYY

The target of assay [2] is ELF4 (UniProt Q99607).
The target in assay [3] is T2, ETV2 (UniProt O00321).
T2 sequence: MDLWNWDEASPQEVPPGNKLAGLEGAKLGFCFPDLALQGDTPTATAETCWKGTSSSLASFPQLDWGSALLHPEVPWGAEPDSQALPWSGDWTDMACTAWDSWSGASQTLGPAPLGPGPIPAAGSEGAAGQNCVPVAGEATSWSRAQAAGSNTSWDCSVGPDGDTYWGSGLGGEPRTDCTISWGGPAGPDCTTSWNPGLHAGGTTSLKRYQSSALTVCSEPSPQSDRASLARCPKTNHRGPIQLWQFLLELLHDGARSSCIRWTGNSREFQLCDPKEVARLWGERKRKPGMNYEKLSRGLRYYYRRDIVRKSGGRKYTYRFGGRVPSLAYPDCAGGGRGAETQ

Assay [4] concerns the target T3, EHF (UniProt Q9NZC4).
T3 sequence: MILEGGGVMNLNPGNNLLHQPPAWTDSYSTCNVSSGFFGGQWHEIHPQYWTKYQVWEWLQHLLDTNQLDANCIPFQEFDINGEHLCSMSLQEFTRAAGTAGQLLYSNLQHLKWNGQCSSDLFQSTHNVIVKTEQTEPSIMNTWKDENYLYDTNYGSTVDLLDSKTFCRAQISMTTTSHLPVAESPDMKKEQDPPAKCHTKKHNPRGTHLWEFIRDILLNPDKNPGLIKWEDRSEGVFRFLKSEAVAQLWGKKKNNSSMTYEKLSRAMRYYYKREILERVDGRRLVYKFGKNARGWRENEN

Assay [5] addresses T4, ETV3L (UniProt Q6ZN32).
T4 sequence: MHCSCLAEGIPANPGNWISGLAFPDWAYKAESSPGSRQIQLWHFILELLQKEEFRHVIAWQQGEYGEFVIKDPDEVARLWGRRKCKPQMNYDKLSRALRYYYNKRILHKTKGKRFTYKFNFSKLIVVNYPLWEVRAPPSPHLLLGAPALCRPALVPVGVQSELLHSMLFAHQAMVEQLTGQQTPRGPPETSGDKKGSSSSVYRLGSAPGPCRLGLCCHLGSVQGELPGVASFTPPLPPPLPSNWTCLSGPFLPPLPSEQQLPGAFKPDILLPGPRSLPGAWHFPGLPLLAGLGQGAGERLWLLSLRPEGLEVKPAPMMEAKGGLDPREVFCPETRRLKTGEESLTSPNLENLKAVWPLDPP

For assay [6], the target named is SPIB (UniProt Q01892).

With ACTATC, the binding signal was 1.15 in assay [1] and 1.24 in assay [2].

Take CCCGTA: the binding signal worked out at 1.14 in assay [1] and 1.16 in assay [2].

TTCTGG: the values for the binding signal in assay [1] and in assay [2] were 1.36 and 1.29, respectively.

In assay [1], GGGTTT displayed a binding signal of 1.17.

Regarding TGAAAT, the binding signal was determined as 0.935 in assay [1] and 0.989 in assay [2].

For TCAAAG, the results for the binding signal in assay [1] and in assay [2] were 1.08 and 1.14, respectively.

In the case of TCTACC, in assay [1], the binding signal was determined as 1.54.

With TGAATG, the binding signal in assay [1] and in assay [2] was 1.16 each time.

TCCGGT: the binding signal in assay [1] came to 3.61; in assay [2] it was 3.32.

In assay [1], CAGGAA showed a binding signal of 1.63.

As for GTTGAC, the binding signal amounted to 1.11 in assay [1] and 1.15 in assay [2].

In turn, ATGTGG had a binding signal in assay [1] of 1.08.

TTCGCC: the binding signal in assay [1] was 1.26; in assay [2], 1.05.

Consider TTTGGG, for which the binding signal in assay [1] was found to be 1.27; in assay [2], 1.41.

Regarding ATAGGC, the binding signal in assay [1] turned out to be 0.946; in assay [2], 0.959; in assay [3], 0.98.

Regarding GTATAA, the binding signal worked out at 1.02 in assay [1] and 1.05 in assay [2].

For the sequence CATTAA, the values for the binding signal in assay [1] and in assay [2] were 0.974 and 1.07, respectively.

As for GTTACA, the binding signal in assay [1] is 1.15; in assay [2], 1.11; in assay [3], 0.957.

As to CATAAC, the binding signal came to 1.09 in assay [1] and 1.1 in assay [2].

Regarding ATCCAC, the binding signal in assay [1] stood at 1.23; in assay [2] it was 1.22.

For CTTCGT, the binding signal in assay [1] was determined as 1.34; in assay [2], 1.29.

Sequence CACCTT returned a binding signal in assay [1] of 1.36.

Turning to CTTTAC, in assay [1], the binding signal worked out at 1.24.

As for TAACCA, the binding signal in assay [1] is 1.12.

For TAACGG, the figures for the binding signal in assay [1] and in assay [2] were 1.1 and 0.998, respectively.

AAACTC: the figures for the binding signal in assay [1] and in assay [2] were 1.29 and 1.22, respectively.

On to TGTCTA, for which the binding signal in assay [1] and in assay [2] was 1.2 throughout.

For TTATAA, the binding signal came to 1.21 in assay [1] and 1.11 in assay [2].

As for TTATTC, the binding signal in assay [1] turned out to be 1.48; in assay [2], 1.41.

As to TAGGAT, the values for the binding signal in assay [1] and in assay [2] were 0.979 and 1, respectively.

Take TCTTGG: the binding signal amounted to 1.44 in assay [1] and 1.39 in assay [2].

As to ACTGGA, the binding signal was found to be 0.983 in assay [1] and 1.1 in assay [2].

On to GACTTC, for which the binding signal in assay [1] amounted to 2.39; in assay [2], 2.28.

For the sequence GTCCAT, the values for the binding signal in assay [1] and in assay [2] were 1.22 and 1.1, respectively.

Regarding GTTCCT, the figures for the binding signal in assay [1], in assay [2] and in assay [3] were 1.73, 1.6 and 1.65, respectively.

As to AATACT, the binding signal in assay [1] and in assay [2] was 1.16 each time.

With CCCAAA, the values for the binding signal in assay [1] and in assay [2] were 0.994 and 1.17, respectively.

CTAACA: the binding signal in assay [1] was 1.28; in assay [2], 1.2; in assay [3] it was 1.21.

GGGGCT: the binding signal in assay [1] worked out at 0.999; in assay [4], 0.938; in assay [2], 1.1; in assay [3], 0.934; in assay [5], 1.22.

With AGCTCG, the binding signal in assay [1] came out at 0.986; in assay [4], 0.997; in assay [6], 0.99; in assay [2], 0.996; in assay [3], 1; in assay [5], 0.995.

Take GTCCGG: the binding signal in assay [1] is 0.922; in assay [4] it was 0.935; in assay [6], 0.962; in assay [2] it was 0.79; in assay [3], 0.811; in assay [5] it was 0.942.

Take CATGCC: the values for the binding signal in assay [1], in assay [2] and in assay [3] were 1.18, 1.16 and 1.08, respectively.

Consider GAATTA, for which the binding signal in assay [1] was found to be 1.09; in assay [2], 0.998; in assay [3] it was 1.02; in assay [5] it was 0.973.

With ATTGTC, the binding signal in assay [1] was determined as 1.17; in assay [2] it was 1.08; in assay [3] it was 1.14; in assay [5] it was 1.14.

In the case of GGCTAA, the binding signal in assay [1] amounted to 0.989; in assay [6], 0.998; in assay [2], 0.981; in assay [3], 0.974; in assay [5], 0.939.

In the case of CATCCA, the binding signal in assay [1] was 1.01; in assay [4], 0.981; in assay [2], 1.02; in assay [3], 0.987; in assay [5] it was 0.985.

Take CATAAG: the binding signal in assay [1] worked out at 0.923; in assay [4] it was 0.946; in assay [6] it was 0.887; in assay [2], 0.951; in assay [3], 0.882; in assay [5] it was 0.93.

Take GTCTAT: the binding signal in assay [1] came to 0.965; in assay [2], 1.11; in assay [3] it was 1.

In the case of CGACGG, the binding signal in assay [1] is 0.916; in assay [4] it was 0.983; in assay [6] it was 0.959; in assay [2] it was 0.952; in assay [3], 0.976; in assay [5] it was 0.982.

AGCGTC: the binding signal in assay [1] turned out to be 0.897; in assay [4], 0.935; in assay [2], 0.974; in assay [3] it was 0.984; in assay [5], 0.972.

Regarding CATTAT, the binding signal in assay [1] came to 1.19; in assay [2] it was 1.21; in assay [3] it was 1.05.

In the case of CGGCAA, the binding signal in assay [1] amounted to 0.911; in assay [4] it was 0.927; in assay [6] it was 0.997; in assay [2], 0.952; in assay [3] it was 0.827; in assay [5] it was 0.928.

Turning to GCGAAA, the binding signal in assay [1] came to 0.952; in assay [4] it was 0.931; in assay [6] it was 0.965; in assay [2], 0.962; in assay [3] it was 0.898; in assay [5], 0.945.

For the sequence TAGTAG, the binding signal in assay [1] was determined as 0.971; in assay [4], 0.983; in assay [2], 0.995; in assay [3], 0.968; in assay [5], 0.951.

Turning to CGAGGT, the binding signal in assay [1] worked out at 0.97; in assay [4], 0.842; in assay [6], 0.933; in assay [2] it was 0.897; in assay [3], 0.99; in assay [5], 0.864.

Regarding GTTGGT, the binding signal was 0.926 in assay [1]; 0.993 in assay [4]; 0.913 in assay [6]; 0.983 in assay [2]; 0.821 in assay [3]; 0.956 in assay [5].

Regarding CGAATC, the binding signal was determined as 1 in assay [1], 0.932 in assay [2] and 0.986 in assay [3].

As to TGGAAC, the binding signal in assay [1] stood at 0.948; in assay [4] it was 1.04; in assay [2] it was 0.955; in assay [3] it was 0.993; in assay [5], 0.981.

For CTGTAG, the binding signal is 0.935 in assay [1]; 0.944 in assay [4]; 0.883 in assay [6]; 0.972 in assay [2]; 0.985 in assay [3]; 0.977 in assay [5].

Regarding CAACTC, the binding signal in assay [1] was determined as 1.37; in assay [2], 1.27; in assay [3] it was 1.3.

For TGGGAA, the binding signal in assay [1] came to 0.944; in assay [2], 0.947; in assay [3], 1.02; in assay [5], 0.923.

Take GGGTAT: the binding signal in assay [1] was 0.956; in assay [4] it was 0.959; in assay [2], 0.888; in assay [3] it was 0.981; in assay [5] it was 0.945.

As for TTTACC, the results for the binding signal in assay [1], in assay [2] and in assay [3] were 1.28, 1.24 and 1.3, respectively.

Consider TTGGCG, for which the binding signal was found to be 1.07 in assay [1]; 0.962 in assay [4]; 0.947 in assay [2]; 0.906 in assay [3]; 0.992 in assay [5].

Regarding AGGGCT, the binding signal worked out at 1.03 in assay [1]; 1.04 in assay [4]; 0.905 in assay [6]; 1.07 in assay [2]; 0.826 in assay [3]; 1.06 in assay [5].

Regarding AGCGAT, the binding signal in assay [1] is 0.994; in assay [2], 0.99; in assay [3] it was 0.936.

As for GTACCA, the binding signal in assay [1] came to 0.962; in assay [4], 0.98; in assay [2] it was 0.999; in assay [3], 0.94; in assay [5] it was 0.991.
